# Test results: doi:10.1101/2021.10.11.462297
# No constants are given. Whether binding was seen depends on the method and setting. Binding seen in cells or lysates may run through a third protein. These calls come from enrichment with a bait or labelling near it, and not all partners need be listed. Sequences can lack the tags named with a protein.
# Target: T1, TRAIP-BirA*-HA (UniProt Q9BWF2)
# T1 sequence: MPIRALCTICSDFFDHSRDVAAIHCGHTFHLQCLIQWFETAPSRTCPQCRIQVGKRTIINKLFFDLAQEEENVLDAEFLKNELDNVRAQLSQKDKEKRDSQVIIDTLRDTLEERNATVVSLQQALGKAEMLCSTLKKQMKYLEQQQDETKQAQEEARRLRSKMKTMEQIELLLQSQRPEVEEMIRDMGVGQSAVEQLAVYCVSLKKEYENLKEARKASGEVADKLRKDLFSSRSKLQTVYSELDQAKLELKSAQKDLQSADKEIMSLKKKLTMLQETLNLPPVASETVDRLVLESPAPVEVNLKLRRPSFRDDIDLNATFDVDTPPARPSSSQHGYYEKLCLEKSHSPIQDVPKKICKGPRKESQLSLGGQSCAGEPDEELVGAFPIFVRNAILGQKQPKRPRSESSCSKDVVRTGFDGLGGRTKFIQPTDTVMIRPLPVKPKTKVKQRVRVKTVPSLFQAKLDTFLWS
# Assay: proximity labelling
row,binding,Substance
1,binds,"SMARCA5 (SNF2H), endogenous (from UniProt O60264 1-1052)"
2,binds,"XRCC5 (Ku80), endogenous (from UniProt P13010 1-732)"
3,binds,AAA-ATPase VCP/p97 (from UniProt P55072 1-806)
4,binds,XRCC6 (Ku70) (from UniProt P12956 1-609)
5,binds,PRKDC (DNA-PKcs) (from UniProt P78527 1-4128)
